Data as given in PubChem BioAssay AID1508588 (Peter MacCallum Cancer Centre, 2020)
The whole screen tested about 18,000 reagents; below is a part drawn at random. 790 of them (4.4%) count as active. 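Calls rest on a combination of fold-change classes in drug and vehicle arms, not all shown here.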 Unmarked entries are inactive. Reagent sequences are not shown.

Aim: 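Genome-wide search for knock-downs that heighten vemurafenib action in melanoma cells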 (primary screen)
Cells: human WM266.4 melanoma cells (BRAF V600 mutant)
Knock-down reagent: siRNA pool against human genes, 40 nM
Duration: 96 h from transfection to read-out
Challenge: vemurafenib 300 nM (about IC25), added 48 h after transfection, for 48 h; comparison arm got DMSO vehicle only
Detection: 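Cell gain (DAPI nuclei at end minus before drug, mean of two replicates) and medium lactate by absorbance per cell, both as ratio to non-targeting siRNA, also grouped into fold-change classes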
Reading the numbers: cell gain with vemurafenib: higher = more cell gain than with non-targeting siRNA; lactate per cell with vemurafenib: higher = more lactate made per cell
Rule for the call: 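Enhancement is called by pairing each knock-down's vehicle-arm and drug-arm fold-change classes for viability or glycolysis; which class combinations qualify is not given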
Meaning of the calls: active = enhances vemurafenib effect; inactive = no enhancement seen

gene	cell gain with vemurafenib	lactate per cell with vemurafenib
CLEC12A (C-type lectin domain family 12 member A)	0.78	0.86
MAB21L3 (mab-21 like 3)	0.45	0.99
CCKAR (cholecystokinin A receptor)	0.67	0.6
DBI (diazepam binding inhibitor, acyl-CoA binding protein)	0.1	2.04
ZNF385C (zinc finger protein 385C)	1.25	0.64
GRIN1 (glutamate ionotropic receptor NMDA type subunit 1)	0.44	2.53
SNRNP27 (small nuclear ribonucleoprotein U4/U6.U5 subunit 27)	0.56	0.74
PTP4A1 (protein tyrosine phosphatase 4A1)	0.99	0.21
DSC1 (desmocollin 1)	0.79	0.76
GALR1 (galanin receptor 1)	0.68	0.7
ZAN (zonadhesin)	1	1.48
RTP4 (receptor transporter protein 4)	0.7	1.15
BRWD1 (bromodomain and WD repeat domain containing 1)	0.51	0.79
AQP9 (aquaporin 9)	0.3	1.42
GGCX (gamma-glutamyl carboxylase)	0.81	0.48
CD200R1 (CD200 receptor 1)	0.81	0.84
PECAM1 (platelet and endothelial cell adhesion molecule 1)	0.31	0.8
NAA30 (N-alpha-acetyltransferase 30, NatC catalytic subunit)	0.17	0.79
GLRX5 (glutaredoxin 5)	0.42	1.23
RPS6 (ribosomal protein S6)	-0.09	1.73
SMIM7 (small integral membrane protein 7)	0.54	1.67
CYYR1 (cysteine and tyrosine rich 1)	0.65	0.34
SYT16 (synaptotagmin 16)	0.12	1.68
CENPV (centromere protein V)	0.83	0.68
OR8B3 (olfactory receptor family 8 subfamily B member 3)	1.26	0.67
SFXN2 (sideroflexin 2)	0.21	0.91
KLHL32 (kelch like family member 32)	0.28	0.61
ANGPTL8 (angiopoietin like 8)	0.5	0.55
MRPL30 (mitochondrial ribosomal protein L30)	0.7	1.12
WNT2 (Wnt family member 2)	0.49	1.27
RAB43 (RAB43, member RAS oncogene family)	0.45	1.77
KCNRG (potassium channel regulator)	0.05	2.87
VSTM2A (V-set and transmembrane domain containing 2A)	0.63	0.92
FPR2 (formyl peptide receptor 2)	0.75	1.46
CUTC (cutC copper transporter)	0.56	0.94
KCNA7 (potassium voltage-gated channel subfamily A member 7)	0.53	0.76
PLEKHM1P1	0.21	2.13
ZNF343 (zinc finger protein 343)	0.94	1.03
USP12 (ubiquitin specific peptidase 12)	0.73	1.08
ADGRA3 (adhesion G protein-coupled receptor A3)	1.03	0.51
RADX (RPA1 related single stranded DNA binding protein, X-linked)	1.09	0.94
TTC33 (tetratricopeptide repeat domain 33)	0.49	0.52
NDUFB8 (NADH:ubiquinone oxidoreductase subunit B8)	0.34	1.5
VCAM1 (vascular cell adhesion molecule 1)	0.8	0.5
BPI (bactericidal permeability increasing protein)	0.82	0.84
WNK4 (WNK lysine deficient protein kinase 4)	1.12	0.55
C5orf15 (chromosome 5 open reading frame 15)	0.11 (active)	0.54
RBM15B (RNA binding motif protein 15B)	-0.09	1.75
MPV17L (MPV17 mitochondrial inner membrane protein like)	0.35	1.67
AVP (arginine vasopressin)	0	1.62
ZNF829 (zinc finger protein 829)	0.59 (active)	0.44
OR6C74 (olfactory receptor family 6 subfamily C member 74)	0.58	1.06
SLC2A4	0.46	0.77
ZSCAN4 (zinc finger and SCAN domain containing 4)	0.46	1.02
SCN4A (sodium voltage-gated channel alpha subunit 4)	1.1	0.41
KCND1 (potassium voltage-gated channel subfamily D member 1)	0.62	1.1
RBMY1J (RNA binding motif protein Y-linked family 1 member J)	0.95	0.7
MOCOS (molybdenum cofactor sulfurase)	1.99	0.88
RTEL1 (regulator of telomere elongation helicase 1)	0.7	0.88
HMMR (hyaluronan mediated motility receptor)	0.6	0.94
ADGRB3 (adhesion G protein-coupled receptor B3)	0.52	0.97
BTBD1 (BTB domain containing 1)	0.45 (active)	0.35
RAD54B (RAD54 homolog B)	0.55	1.15
SLFN11 (schlafen family member 11)	0.76	0.64
DHRS4 (dehydrogenase/reductase 4)	0.33	1.87
OPN1MW2 (opsin 1, medium wave sensitive 2)	0.59	1.03
OR5AC2 (olfactory receptor family 5 subfamily AC member 2)	0.92	0.66
ARL6 (ARF like GTPase 6)	0.89	0.52
AGRN (agrin)	0.54	1.33
FAF2 (Fas associated factor family member 2)	0.93	1.04
ZNF385A (zinc finger protein 385A)	0.68	0.84
FAM162A (family with sequence similarity 162 member A)	0.97	0.45
TNNT1 (troponin T1, slow skeletal type)	0.48	0.7
SQSTM1 (sequestosome 1)	0.45	1.16
VMO1 (vitelline membrane outer layer 1 homolog)	0.86	0.6
RASIP1 (Ras interacting protein 1)	0.19	1.96
NFATC2IP (nuclear factor of activated T cells 2 interacting protein)	0.83	1.11
MTG2 (mitochondrial ribosome associated GTPase 2)	0.67	1.43
NRBP1 (nuclear receptor binding protein 1)	0.42	1.46
AQR (aquarius intron-binding spliceosomal factor)	0.05	0.97
NIPSNAP3A (nipsnap homolog 3A)	0.36	0.52
STXBP1 (syntaxin binding protein 1)	0.33	2.16
ARGLU1 (arginine and glutamate rich 1)	0.43	1.21
SEPTIN14 (septin 14)	0.35 (active)	0.68
SLC25A52	0.02	1.33
KIF6 (kinesin family member 6)	0.3	1.45
PITX3 (paired like homeodomain 3)	1.29	0.78
GRM2 (glutamate metabotropic receptor 2)	0.05	0.73
SPATS2L (spermatogenesis associated serine rich 2 like)	0.77	1.54
CD79A (CD79a molecule)	0.43	1.19
CDH13 (cadherin 13)	0.52	1.01
ACTR2 (actin related protein 2)	0.45	1.04
RYBP (RING1 and YY1 binding protein)	0.27	0.48
ST3GAL6 (ST3 beta-galactoside alpha-2,3-sialyltransferase 6)	0.35	2.58
C22orf42 (chromosome 22 open reading frame 42)	0.52	0.64
DCLRE1A (DNA cross-link repair 1A)	0.45	1.52
UBE2E2 (ubiquitin conjugating enzyme E2 E2)	1.21	0.55
PPP1R3F (protein phosphatase 1 regulatory subunit 3F)	1.08	0.65
LMAN1L (lectin, mannose binding 1 like)	0.59	1.12
CAPN13 (calpain 13)	0.77	1.12
UBE2D1 (ubiquitin conjugating enzyme E2 D1)	0.4	1.16
B3GNT4	0.65	1.09
ANP32E (acidic nuclear phosphoprotein 32 family member E)	0.73	0.66
NEURL3 (neuralized E3 ubiquitin protein ligase 3)	0.97	0.68
DNAJB13 (DnaJ heat shock protein family (Hsp40) member B13)	0.43	0.93
ACLY (ATP citrate lyase)	0.63	0.88
LRRC42 (leucine rich repeat containing 42)	0.82	0.83
